Test [1] concerns the target T1, human GPC3 (Glypican-3) (human, UniProt P51654 25-580). Nature of the test: FACS on HepG2 cells.
For test [2], the target named is T1, human GPC3 (Glypican-3). Nature of the test: FACS on GPC3-CHO-K1, HepG2 and Huh-7 cells.

By UniProt entry, the sequences of proteins in these tests, tags left out. Where a name states a change or a piece, a line headed by the entry shows the natural chain unless it says otherwise.
UniProt P51654: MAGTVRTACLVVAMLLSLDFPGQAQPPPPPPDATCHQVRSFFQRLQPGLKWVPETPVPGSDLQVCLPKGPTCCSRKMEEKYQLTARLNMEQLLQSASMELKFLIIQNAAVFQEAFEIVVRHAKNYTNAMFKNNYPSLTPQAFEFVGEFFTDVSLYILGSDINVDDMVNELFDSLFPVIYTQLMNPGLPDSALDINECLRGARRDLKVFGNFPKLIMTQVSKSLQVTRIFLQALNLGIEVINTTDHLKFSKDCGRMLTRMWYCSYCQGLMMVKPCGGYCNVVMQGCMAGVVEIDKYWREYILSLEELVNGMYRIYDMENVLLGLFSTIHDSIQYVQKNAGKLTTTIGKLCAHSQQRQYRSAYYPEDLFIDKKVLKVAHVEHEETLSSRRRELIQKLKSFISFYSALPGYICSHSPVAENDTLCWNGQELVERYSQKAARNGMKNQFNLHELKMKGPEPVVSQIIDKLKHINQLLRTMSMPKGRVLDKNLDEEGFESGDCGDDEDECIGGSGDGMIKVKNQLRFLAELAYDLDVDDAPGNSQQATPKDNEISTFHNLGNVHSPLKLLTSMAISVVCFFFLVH

These are yes or no findings as the source states them, for the method shown. Binding calls can cover weak binding; strength is not graded here.

Here are results for four molecules from patent EP4591887A1, “GPC3 ANTIBODY-DRUG CONJUGATE AND USE THEREOF” (priority 2022, dated 2024).

B1: GC33 antibody (Chugai Pharmaceutical) (antibody, V domains shown)
VH: QVQLVQSGAEVKKPGASVKVSCKASGYTFTDYEMHWVRQAPGQGLEWMGALDPKTGDTAYSQKFKGRVTLTADKSTSTAYMELSSLTSEDTAVYYCTRFYSYTYWGQGTLVTVSS
VL: DVVMTQSPLSLPVTPGEPASISCRSSQSLVHSNGNTYLHWYLQKPGQSPQLLIYKVSNRFSGVPDRFSGSGSGTDFTLKISRVEAEDVGVYYCSQNTHVPPTFGQGTKLEIK
notes: Control antibody, prepared as in US 7919086 B2; Whole antibody; Detected with anti-human IgG
As to B1, the binding entry in test [1] and in test [2] was “binds” throughout.

B2: Hu 52H5D3B8-8 (antibody, human IgG1, kappa, V domains shown)
VH: EVQLVQSGAEVKKPGASVKVSCKASGYTFTDYEMHWVRQAPGQGLEWMGAIHPGSGGTAYNQKFKGRVTMTADKSISTAYMELSRLRSDDTAVYYCTRFYSYAYWGQGTLVTVSS
VL: DVVMTQTPLSLSVTPGQPASISCRSSQSLVHSNGNTYLQWYLQKPGQSPQLLIYKVSNRFSGVPDRFSGSGSGTDFTLKISRVEAEDVGVYFCSQSIHVPYTFGGGTKVEIKR
notes: also called humanized GPC3 antibody Hu 52H5D3B8-8
With B2, the binding entry in test [1] and in test [2] was “binds” in each case.

B3: Y035 CDRs with Hu 52H5D3B8-7 FRs (antibody, V domains shown)
VH: EVQLVQSGAEVKKPGASVKVSCKASGYTFTDYEMHWVRQAPGQGLEWMGAIHPGSGDTAYNQRFKGRVTMTADKSISTAYMELSRLRSDDTAVYYCTRFYSYAYWGQGTLVTVSS
VL: DVVMTQTPLSLSVTPGQPASISCRSSQSLVHSNGNTYLQWYLQKPGQSPQLLIYKVSNRFSGVPDRFSGSGSGTDFTLKISRVEAEDVGVYYCSQSIYVPYTFGGGTKVEIK
notes: built here from the pieces; detected with anti-human IgG
Take B3: the binding entry in test [2] is “binds”.

B4: Hu 52H5D3B8-7 (antibody, human IgG1, kappa, V domains shown)
VH: EVQLVQSGAEVKKPGASVKVSCKASGYTFTDYEMHWVRQAPGQGLEWMGAIHPGSGGTAYNQKFKGRVTMTADKSISTAYMELSRLRSDDTAVYYCTRFYSYAYWGQGTLVTVSS
VL: DVVMTQTPLSLSVTPGQPASISCRSSQSLVHSNGNTYLQWYLQKPGQSPQLLIYKVSNRFSGVPDRFSGSGSGTDFTLKISRVEAEDVGVYYCSQSIHVPYTFGGGTKVEIKR
notes: also called humanized GPC3 antibody Hu 52H5D3B8-7
On to B4, for which, in test [2], the binding entry is “binds”.
